Measured values as given in article PMC9675737.

The chains behind the UniProt entries cited, without tags or fusion partners.
UniProt O60825: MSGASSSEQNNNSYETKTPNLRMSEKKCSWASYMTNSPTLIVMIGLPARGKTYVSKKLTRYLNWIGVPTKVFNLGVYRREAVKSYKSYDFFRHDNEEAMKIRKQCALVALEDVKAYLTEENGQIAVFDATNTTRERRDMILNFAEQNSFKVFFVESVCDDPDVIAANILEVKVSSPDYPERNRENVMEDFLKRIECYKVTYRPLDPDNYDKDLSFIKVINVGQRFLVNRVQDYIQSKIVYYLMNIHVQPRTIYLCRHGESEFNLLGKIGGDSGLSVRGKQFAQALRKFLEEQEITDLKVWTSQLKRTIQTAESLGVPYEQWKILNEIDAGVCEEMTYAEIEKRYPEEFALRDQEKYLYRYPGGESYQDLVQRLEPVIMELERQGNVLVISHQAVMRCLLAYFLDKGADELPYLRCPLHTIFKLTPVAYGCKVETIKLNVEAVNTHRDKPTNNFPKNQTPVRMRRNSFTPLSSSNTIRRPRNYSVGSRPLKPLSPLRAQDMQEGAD
UniProt P31946: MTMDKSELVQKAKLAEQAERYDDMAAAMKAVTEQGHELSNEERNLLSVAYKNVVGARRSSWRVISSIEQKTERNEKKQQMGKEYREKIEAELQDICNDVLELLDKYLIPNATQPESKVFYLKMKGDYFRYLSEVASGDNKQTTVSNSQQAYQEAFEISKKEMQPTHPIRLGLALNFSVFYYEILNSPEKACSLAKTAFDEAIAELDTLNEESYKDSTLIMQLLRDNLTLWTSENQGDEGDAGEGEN
UniProt Q16875: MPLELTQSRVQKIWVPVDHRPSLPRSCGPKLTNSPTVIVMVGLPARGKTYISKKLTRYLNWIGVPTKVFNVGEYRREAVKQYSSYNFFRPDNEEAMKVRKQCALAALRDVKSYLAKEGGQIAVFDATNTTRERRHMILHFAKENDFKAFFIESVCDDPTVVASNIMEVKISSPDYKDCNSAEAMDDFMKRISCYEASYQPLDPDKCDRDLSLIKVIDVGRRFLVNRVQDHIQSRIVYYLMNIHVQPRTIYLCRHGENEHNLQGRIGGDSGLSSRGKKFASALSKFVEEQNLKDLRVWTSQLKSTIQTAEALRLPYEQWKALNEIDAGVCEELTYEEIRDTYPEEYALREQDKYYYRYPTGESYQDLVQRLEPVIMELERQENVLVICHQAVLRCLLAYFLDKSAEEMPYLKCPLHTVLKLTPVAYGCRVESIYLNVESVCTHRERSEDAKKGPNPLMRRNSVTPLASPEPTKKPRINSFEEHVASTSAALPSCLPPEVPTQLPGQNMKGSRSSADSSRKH

Molecular target: His-tagged PFKFB2 (human) (UniProt O60825)
Experiment: affinity purification with mass spectrometry; His-tag pull-down (Ni-IMAC, His-Trap) of His-PFKFB2 complexes from SKMel103 and UACC903 cells, untreated, 1 h GS and/or sorafenib 15 µM; LC-MS/MS

Substance	binding
14-3-3β (from UniProt P31946 1-246)	binds
PFKFB3 (endogenous) (from UniProt Q16875 1-520) (enzyme)	binds

Results are given in words; binding and its absence hold for the method and conditions named. In cells and extracts the contact can be indirect. Here binding means that the protein was enriched with, or labelled near, the bait; the list need not be complete.
